From publication PMC7862700
The other results are listed elsewhere or left out. Construct or isoform of the protein are uncertain.

Target: T1, ELF2 (UniProt Q15723)
T1 sequence: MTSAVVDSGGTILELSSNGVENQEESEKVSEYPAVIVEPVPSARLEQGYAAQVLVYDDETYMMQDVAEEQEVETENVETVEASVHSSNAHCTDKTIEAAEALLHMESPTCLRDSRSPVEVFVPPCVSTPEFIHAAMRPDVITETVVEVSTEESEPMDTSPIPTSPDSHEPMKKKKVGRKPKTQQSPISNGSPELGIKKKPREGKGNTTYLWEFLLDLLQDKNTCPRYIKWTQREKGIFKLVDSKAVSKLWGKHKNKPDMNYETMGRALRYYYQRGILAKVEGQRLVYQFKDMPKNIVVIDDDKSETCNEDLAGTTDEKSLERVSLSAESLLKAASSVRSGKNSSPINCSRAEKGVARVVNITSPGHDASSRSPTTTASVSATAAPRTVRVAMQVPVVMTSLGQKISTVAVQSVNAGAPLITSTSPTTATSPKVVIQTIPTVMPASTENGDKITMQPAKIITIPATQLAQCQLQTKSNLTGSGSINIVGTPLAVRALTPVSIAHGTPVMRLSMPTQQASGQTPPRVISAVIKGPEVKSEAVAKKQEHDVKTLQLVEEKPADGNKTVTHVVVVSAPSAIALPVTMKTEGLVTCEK
Assay: DAPPL (digital affinity profiling via proximity ligation, sequencing)
Settings: 10 mM Tris-HCl pH 7.5, 50 mM NaCl, 1 mM DTT, 4% glycerol, room temperature, 30 min; GST-TFs on glutathione beads, 16-mer random dsDNA library, 0.1% …; high values mean tight binding; double strand, one strand shown; scale: fold enrichment (6-mer frequency, TF over GST control)

| Sequence | binding signal |
| --- | --- |
| TCTTTT | 1.46 |
| TCCAAC | 1.13 |
| AGTGCT | 1.39 |
| TGAATG | 1.11 |
| AAGCTG | 1.1 |
| TGTTTT | 1.32 |
| TTGACT | 1.14 |
| AATCGT | 0.846 |
| TGCCCC | 1.18 |
| AGGAAT | 0.842 |
| GTCTAG | 0.832 |
| TCCTCG | 1.45 |
| TTGCTG | 1.17 |
| TGGCAT | 1.11 |
| ACTGGA | 0.975 |
| TCCACG | 1.03 |
| GGTTCT | 0.998 |
| GGATTT | 1.34 |

| Sequence | binding signal |
| --- | --- |
| TGTCTT | 1.33 |
| CACTCC | 1.2 |
| CTTGTA | 1.32 |
| CGTCTG | 0.951 |
| CGACAT | 1.23 |
| ATGTTT | 1.41 |
| CCTCCT | 1.48 |
| ATATTT | 1.64 |
| GAATTA | 1.1 |
| TAAGTA | 1.19 |
| GTTCCC | 1.32 |
| TCCTGT | 2.1 |
| ATTTTA | 1.26 |
| CCGCAA | 1.46 |
| ACGATT | 1.32 |
| CTGAAA | 1.11 |
| GCTTCT | 1.52 |

Reprinted from the results shown for reference:

| Sequence | binding signal |
| --- | --- |
| ATATTT | 1.64 |
| GAATTA | 1.1 |
